In patent US6716822B2, “Therapeutic agent for ischemia which inhibits apoptosis under ischemic condition” (priority 2000, dated 2004):
At least one compound was matched to its structure with a doubt left.

Test system: Sprague-Dawley rats
Experiment: Effect of antibiotics on ischemic cells: rat left anterior descending artery ligature, infarct/ischemic area by Evans blue/TTC staining
Type: in vivo
Conditions: 45 mg/kg peritoneally, LAD ligature, versus control

C[C@H]1c2cccc(O)c2C(=O)C2=C(O)[C@]3(O)C(=O)C(C(N)=O)=C(O)[C@@H](N(C)C)[C@@H]3[C@@H](O)[C@@H]21 [doxycycline]
Infarct area (IS), in words: reduced
